PubChem BioAssay AID504804 | Drosophila RNAi Screening Center | 2011
Screen: 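Knock-downs shielding fly cells from apoptosis caused by DNA damage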 (primary screen). System: Drosophila Kc cells. Reagents: long dsRNA against Drosophila genes, 0.5 µg dsRNA per well. Timing: 96 h (48 h knock-down, then 48 h drug). Conditions: doxorubicin 5 µg/ml for 48 h, added 48 h after dsRNA. Measurement: 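Viability measured as cellular ATP by luminescence after 48 h knock-down then 48 h doxorubicin at 5 µg/ml; unnormalised plate counts for each replicate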. Scale: raw ATP luminescence: higher = more viable cells, protection from doxorubicin. Call rule: 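z-score of 2 or more over plate mean in both duplicates, retained only when retests and separate dsRNAs confirm the protection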.
In all, the deposit lists about 19,000 reagents; below is an unselected part of those with a known target gene and a result. In the full data, 47 (0.25%) are marked active. 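Signals are raw, not normalised; exact z-scores behind calls not deposited; actives needed confirmation, so some wells reaching 2 SD are inactive.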 A number with no mark means an inactive call. Reagents against one gene are numbered here. Names joined by + are all predicted targets of the reagent.

| gene | dsRNA no. | SD above plate mean | raw ATP luminescence, replicate 1 | raw ATP luminescence, replicate 2 |
| --- | --- | --- | --- | --- |
| Or88a (GeneID 41715) | 1 | – | 83940 | 81670 |
| Pop4 (GeneID 38889) | 1 | – | 69123 | 82830 |
| alpha4GT2 (GeneID 43124) | 1 | – | 75060 | 81220 |
| CG15890 (GeneID 32401) | 1 | – | 3.90e5 | 3.17e5 |
| CG3942 (GeneID 41489) | 1 | – | 61627 | 51603 |
| CG6527 (GeneID 39197) | 1 | – | 72797 | 55083 |
| CG13002 (GeneID 32681) | 1 | – | 3.22e5 | 3.11e5 |
| CG3036 (GeneID 33695) | 1 | – | 2.79e5 | 2.57e5 |
| CG3036 (GeneID 33695) | 2 | – | 1.17e5 | 83503 |
| CG11191 (GeneID 35765) | 1 | – | 67830 | 58233 |
| pk (GeneID 45343) | 1 | – | 44447 | 77283 |
| pk (GeneID 45343) | 2 | – | 55230 | 74773 |
| Ibf1 (GeneID 41103) | 1 | – | 36743 | 45417 |
| CG2063 (GeneID 35952) | 1 | – | 38220 | 82907 |
| Stip1 (GeneID 33202) | 1 | – | 85207 | 64900 |
| RpL34b (GeneID 41120) | 1 | – | 50203 | 41507 |
| CG18278 + CG30059 | 1 | – | 71833 | 94270 |
| Gp210 (GeneID 35512) | 1 | – | 51117 | 46630 |
| Gp210 (GeneID 35512) | 2 | – | 78000 | 63233 |
| GatB (GeneID 42861) | 1 | – | 72760 | 1.08e5 |
| Dhod (GeneID 41022) | 1 | – | 60277 | 30567 |
| Ncc69 (GeneID 39410) | 1 | – | 34780 | 34340 |
| Ncc69 (GeneID 39410) | 2 | – | 62167 | 59660 |
| MED26 (GeneID 43816) | 1 | – | 1.79e5 | 1.71e5 |
| MED26 (GeneID 43816) | 2 | – | 37750 | 41680 |
| CG2209 (GeneID 32250) | 1 | – | 3.60e5 | 3.65e5 |
| RpS5b (GeneID 41807) | 1 | – | 60480 | 62180 |
| sac (GeneID 40568) | 1 | – | 83603 | 65137 |
| CG11865 (GeneID 34917) | 1 | – | 56173 | 73060 |
| Cpr67B (GeneID 39081) | 1 | – | 39677 | 40423 |
| Poxn (GeneID 36741) | 1 | – | 1.24e5 | 1.14e5 |
| ebi (GeneID 33212) | 1 | – | 1.26e5 | 77590 |
| wor (GeneID 34906) | 1 | – | 74730 | 68373 |
| CG9777 (GeneID 32633) | 1 | – | 3.13e5 | 2.38e5 |
| ClC-c (GeneID 39759) | 1 | – | 22420 | 20367 |
| CG18568 (GeneID 36549) | 1 | – | 53497 | 49337 |
| ebd2 (GeneID 40363) | 1 | – | 66807 | 56570 |
| CG9641 (GeneID 33502) | 1 | – | 1.24e5 | 70533 |
| Vha26 (GeneID 40679) | 1 | – | 36513 | 17853 |
| CG7631 (GeneID 34919) | 1 | – | 64200 | 70550 |
| Eig71Ek (GeneID 39712) | 1 | – | 82773 | 60393 |
| CG13589 (GeneID 37906) | 1 | 2 to 3 SD above plate mean | 90733 | 73693 |
| ITP (GeneID 37921) | 1 | – | 53577 | 40363 |
| GABA-B-R2 (GeneID 42561) | 1 | – | 51013 | 48330 |
| Pcif1 (GeneID 40295) | 1 | – | 25373 | 29760 |
| Ctps (GeneID 39645) | 1 | – | 96087 | 92187 |
| Ctps (GeneID 39645) | 2 | 2 to 3 SD above plate mean | 49267 | 50743 |
| Ctps (GeneID 39645) | 3 | – | 43730 | 45067 |
| PpN58A (GeneID 37493) | 1 | – | 63997 | 58323 |
| Duba (GeneID 39302) | 1 | – | 43447 | 36313 |
| Tsp66E (GeneID 39017) | 1 | – | 79607 | 76940 |
| sinu (GeneID 46187) | 1 | – | 2.22e5 | 2.27e5 |
| polo (GeneID 40232) | 1 | at least 3 SD above plate mean (active) | 57420 | 47220 |
| CG18262 (GeneID 31745) | 1 | – | 35050 | 42570 |
| CG5377 (GeneID 42645) | 1 | – | 78390 | 63410 |
| CG33627 (GeneID 3772219) | 1 | – | 89727 | 1.01e5 |
| CG6937 + btn | 1 | – | 67080 | 42640 |
| coro (GeneID 35596) | 1 | – | 63963 | 62350 |
| Esyt2 (GeneID 42929) | 1 | – | 33040 | 34607 |
| cnn (GeneID 36491) | 1 | – | 81523 | 1.03e5 |
| Klp98A (GeneID 43310) | 1 | – | 38650 | 44720 |
| piwi (GeneID 34521) | 1 | – | 94157 | 55980 |
| CG14915 (GeneID 34536) | 1 | – | 44417 | 87073 |
| Hacd2 (GeneID 34762) | 1 | – | 56067 | 1.16e5 |
| CG12995 (GeneID 32707) | 1 | – | 3.45e5 | 2.84e5 |
| vnc + CG42455 | 1 | 2 to 3 SD above plate mean (active) | 61957 | 61040 |
| CG30375 (GeneID 246575) | 1 | – | 56917 | 88683 |
| CG42355 (GeneID 317969) | 1 | – | 1.69e5 | 1.59e5 |
| CG14195 (GeneID 32911) | 1 | – | 3.66e5 | 3.14e5 |
| mod(mdg4) + pre-mod(mdg4)-Z + pre-mod(mdg4)-T | 1 | – | 2.13e5 | 1.85e5 |
| mod(mdg4) + pre-mod(mdg4)-Z + pre-mod(mdg4)-T | 2 | – | 34190 | 29150 |
| dgt5 (GeneID 36364) | 1 | – | 79160 | 65807 |
| Wnt5 (GeneID 32838) | 1 | – | 2.55e5 | 2.71e5 |
| Scox (GeneID 33711) | 1 | – | 32047 | 38043 |
| CG43775 (GeneID 37863) | 1 | – | 41887 | 47537 |
| CG14395 (GeneID 41560) | 1 | – | 55567 | 46547 |
| rdgA (GeneID 31826) | 1 | – | 43890 | 38260 |
| rdgA (GeneID 31826) | 2 | – | 46590 | 41110 |
| CG9270 (GeneID 35366) | 1 | – | 55103 | 51927 |
| CG17327 (GeneID 41598) | 1 | – | 97420 | 69590 |
| Sac1 (GeneID 38137) | 1 | – | 63173 | 92140 |
| lncRNA:CR32368 (GeneID 317997) | 1 | – | 1.57e5 | 1.58e5 |
| RhoU (GeneID 31945) | 1 | – | 2.07e5 | 2.69e5 |
| RhoU (GeneID 31945) | 2 | – | 3.01e5 | 2.81e5 |
| RhoU (GeneID 31945) | 3 | – | 4.51e5 | 3.80e5 |

6 of these entries in another layout:
gene,dsRNA no.,SD above plate mean,"raw ATP luminescence, replicate 1","raw ATP luminescence, replicate 2"
cnn (GeneID 36491),1,,81523,1.03e5
Klp98A (GeneID 43310),1,,38650,44720
piwi (GeneID 34521),1,,94157,55980
CG14915 (GeneID 34536),1,,44417,87073
Hacd2 (GeneID 34762),1,,56067,1.16e5
CG12995 (GeneID 32707),1,,3.45e5,2.84e5
